Reference: the supplement of paper PMC10849652
Some of the results follow.

Amino acid sequences for entries named in this document (tags omitted). A change or cut given only in a name is not applied to a line headed by its entry.
UniProt Q99547: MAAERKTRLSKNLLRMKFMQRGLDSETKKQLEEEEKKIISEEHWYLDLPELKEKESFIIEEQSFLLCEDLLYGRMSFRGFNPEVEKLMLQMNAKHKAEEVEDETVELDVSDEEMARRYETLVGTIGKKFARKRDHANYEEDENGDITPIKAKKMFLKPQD
UniProt Q7L9L4: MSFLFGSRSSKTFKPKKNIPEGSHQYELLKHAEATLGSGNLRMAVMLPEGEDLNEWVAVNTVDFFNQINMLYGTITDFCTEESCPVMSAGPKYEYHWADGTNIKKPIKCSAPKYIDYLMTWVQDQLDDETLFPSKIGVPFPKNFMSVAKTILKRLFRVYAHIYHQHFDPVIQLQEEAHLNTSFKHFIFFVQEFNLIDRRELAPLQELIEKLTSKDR
UniProt O95822: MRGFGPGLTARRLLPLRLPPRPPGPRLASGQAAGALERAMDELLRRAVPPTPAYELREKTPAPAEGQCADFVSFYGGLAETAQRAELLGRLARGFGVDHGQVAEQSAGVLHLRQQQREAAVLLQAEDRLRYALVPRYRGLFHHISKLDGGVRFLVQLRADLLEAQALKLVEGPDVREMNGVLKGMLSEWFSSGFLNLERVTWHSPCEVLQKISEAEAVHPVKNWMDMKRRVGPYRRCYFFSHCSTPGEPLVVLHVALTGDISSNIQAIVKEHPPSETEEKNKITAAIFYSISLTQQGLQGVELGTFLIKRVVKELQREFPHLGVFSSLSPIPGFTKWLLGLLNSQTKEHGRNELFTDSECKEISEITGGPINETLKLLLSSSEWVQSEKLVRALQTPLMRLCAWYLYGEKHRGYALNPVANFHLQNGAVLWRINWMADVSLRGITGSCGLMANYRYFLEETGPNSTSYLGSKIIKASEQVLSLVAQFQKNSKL
UniProt Q567V2: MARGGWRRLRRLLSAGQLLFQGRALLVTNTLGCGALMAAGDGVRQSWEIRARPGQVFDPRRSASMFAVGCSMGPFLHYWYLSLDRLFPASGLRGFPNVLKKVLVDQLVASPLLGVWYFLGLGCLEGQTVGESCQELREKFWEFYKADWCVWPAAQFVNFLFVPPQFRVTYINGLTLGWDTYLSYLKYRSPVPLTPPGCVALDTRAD
UniProt Q9NZW5: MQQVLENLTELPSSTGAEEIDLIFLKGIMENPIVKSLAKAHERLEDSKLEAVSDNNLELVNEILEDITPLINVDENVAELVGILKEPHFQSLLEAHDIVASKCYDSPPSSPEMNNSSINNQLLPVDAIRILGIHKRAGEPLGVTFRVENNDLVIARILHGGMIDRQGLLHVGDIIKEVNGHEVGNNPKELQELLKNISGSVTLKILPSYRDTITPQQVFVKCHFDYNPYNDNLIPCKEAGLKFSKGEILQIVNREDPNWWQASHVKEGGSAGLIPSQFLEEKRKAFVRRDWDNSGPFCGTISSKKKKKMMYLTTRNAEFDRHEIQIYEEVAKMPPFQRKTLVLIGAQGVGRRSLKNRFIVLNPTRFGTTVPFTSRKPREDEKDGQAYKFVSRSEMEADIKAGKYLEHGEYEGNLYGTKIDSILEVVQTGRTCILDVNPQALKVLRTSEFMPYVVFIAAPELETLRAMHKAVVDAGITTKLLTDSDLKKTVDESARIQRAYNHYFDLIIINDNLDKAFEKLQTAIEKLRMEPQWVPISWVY

Columns and labels:
Experiment in all cases: log2 fold change, soluble protein after heating vs DMSO (PISA); higher = thermal stabilisation; K562 cells, 10 uM, 30 min; active = over 0.2 and 3.5 SD of the protein, either way, in both replicates (recomputed)
[1] = compound: COC1=CC=C(C=C1)CN2C=CC3=C2C=C(C=C3)C(=O)NO
Procedure, shortened: (§1)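 K562 cells at 2×10^6 cells/mL were exposed to 10 μM compound for 30 min, then aliquots were heated for 3 min across 48°C-58°C, pooled, and extracted in PBS containing 0.5% NP-40 at 4°C. The supernatant after 21,000xg for 90 min was taken as soluble protein and measured by TMTpro 16plex LC-MS/MS with channel sums equalised. Thermal stability is reported relative to control samples, with values from duplicates. Fold changes are given on a log2 scale.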

filanesib = compound: CON(C)C(=O)N1N=C(c2cc(F)ccc2F)S[C@@]1(CCCN)c1ccccc1 [filanesib]
Procedure, shortened: as §1

zotarolimus = compound: CO[C@H]1C[C@@H]2CC[C@@H](C)[C@@](O)(O2)C(=O)C(=O)N2CCCC[C@H]2C(=O)O[C@H]([C@H](C)C[C@@H]2CC[C@H](n3cnnn3)[C@H](OC)C2)CC(=O)[C@H](C)/C=C(\C)[C@@H](O)[C@@H](OC)C(=O)[C@H](C)C[C@H](C)/C=C/C=C/C=C/1C [zotarolimus]
Procedure, shortened: as §1

idasanutlin = compound: COc1cc(C(=O)O)ccc1NC(=O)[C@@H]1N[C@@H](CC(C)(C)C)[C@](C#N)(c2ccc(Cl)cc2F)[C@H]1c1cccc(Cl)c1F [idasanutlin]
Procedure, shortened: as §1

alisertib = compound: COc1cc(Nc2ncc3c(n2)-c2ccc(Cl)cc2C(c2c(F)cccc2OC)=NC3)ccc1C(=O)O [alisertib]
Procedure, shortened: as §1

[2] = compound: COc1cc2nc(-c3cc(F)ccc3O)nc(N[C@@H]3CNC[C@H]3C(C)(C)O)c2cc1OC
Procedure, shortened: as §1

gefitinib = compound: COc1cc2ncnc(Nc3ccc(F)c(Cl)c3)c2cc1OCCCN1CCOCC1 [gefitinib]
Procedure, shortened: as §1

[3] = compound: COc1cccc2cc(-c3nc([C@H]4CC[C@H](C(=O)O)CC4)n4ncnc(N)c34)[nH]c12
Procedure, shortened: as §1

lapatinib = compound: CS(=O)(=O)CCNCc1ccc(-c2ccc3ncnc(Nc4ccc(OCc5cccc(F)c5)c(Cl)c4)c3c2)o1 [lapatinib]
Procedure, shortened: as §1

pictilisib = compound: CS(=O)(=O)N1CCN(Cc2cc3nc(-c4cccc5[nH]ncc45)nc(N4CCOCC4)c3s2)CC1 [pictilisib]
Procedure, shortened: as §1

[4] = compound: CS(=O)(=O)c1ccc(-c2cnc(N)c(C(=O)Nc3ccccc3)n2)cc1
Procedure, shortened: as §1

crizotinib = compound: C[C@@H](Oc1cc(-c2cnn(C3CCNCC3)c2)cnc1N)c1c(Cl)ccc(F)c1Cl [crizotinib]
Procedure, shortened: as §1

[5] = compound: C[C@@H]1COCCN1C2=NC(=NC(=C2)C3(CC3)S(=O)(=O)C)C4=C5C=CNC5=CC=C4
Procedure, shortened: as §1

[6] = compound: C[C@H](C1=CC=C(C=C1)C(=O)NC2=C3C=CNC3=NC=C2)N
Procedure, shortened: as §1

duvelisib = compound: C[C@H](Nc1ncnc2nc[nH]c12)c1cc2cccc(Cl)c2c(=O)n1-c1ccccc1 [duvelisib]
Procedure, shortened: as §1

gandotinib = compound: Cc1cc(Nc2cc(CN3CCOCC3)c3nc(C)c(Cc4ccc(Cl)cc4F)n3n2)n[nH]1 [gandotinib]
Procedure, shortened: as §1

tozasertib = compound: Cc1cc(Nc2cc(N3CCN(C)CC3)nc(Sc3ccc(NC(=O)C4CC4)cc3)n2)n[nH]1 [tozasertib]
Procedure, shortened: as §1

[7] = compound: Cc1cc(SCc2sc(-c3ccc(C(F)(F)F)cc3)nc2C)ccc1OCC(=O)O
Procedure, shortened: as §1

doramapimod = compound: Cc1ccc(-n2nc(C(C)(C)C)cc2NC(=O)Nc2ccc(OCCN3CCOCC3)c3ccccc23)cc1 [doramapimod]
Procedure, shortened: as §1

ispinesib = compound: Cc1ccc(C(=O)N(CCCN)[C@@H](c2nc3cc(Cl)ccc3c(=O)n2Cc2ccccc2)C(C)C)cc1 [ispinesib]
Procedure, shortened: as §1

Measured: log2 fold change

MPHOSPH6 (UniProt Q99547)
inactive: [1] -0.078 | filanesib 0.126 | zotarolimus 0.064 | idasanutlin 0.102 | alisertib 0.455 | [2] -0.018 | gefitinib 0.023 | [3] -0.047 | lapatinib 0.02 | pictilisib -0.017 | [4] -0.044 | crizotinib -0.056 | [5] -0.122 | [6] 0.143 | duvelisib -0.05 | gandotinib 0.119 | tozasertib -0.006 | [7] 0.059 | doramapimod 0.076 | ispinesib -0.248

MOB1B isoform 2 (UniProt Q7L9L4)
inactive: [1] -0.021 | filanesib -0.107 | zotarolimus 0 | idasanutlin -0.048 | alisertib 0.014 | [2] -0.023 | gefitinib 0.012 | [3] 0.058 | lapatinib 0.008 | pictilisib -0.042 | [4] 0.049 | crizotinib -0.059 | [5] 0.05 | [6] -0.057 | duvelisib 0.009 | gandotinib -0.026 | tozasertib 0 | [7] -0.04 | doramapimod 0.004 | ispinesib -0.009

MRPL12 (UniProt P52815)
inactive: [1] -0.109 | filanesib 0.014 | zotarolimus 0.065 | idasanutlin -0.001 | alisertib -0.055 | [2] -0.19 | gefitinib 0.012 | [3] 0.003 | lapatinib 0 | pictilisib 0.127 | [4] 0.005 | crizotinib 0.243 | [5] 0.162 | [6] -0.098 | duvelisib 0.05 | gandotinib 0.119 | tozasertib 0.088 | [7] -0.037 | doramapimod 0.087 | ispinesib 0.091

MLYCD (UniProt O95822)
inactive: [1] -0.033 | filanesib -0.076 | zotarolimus -0.008 | idasanutlin -0.095 | alisertib -0.079 | [2] -0.107 | gefitinib 0.073 | [3] 0.069 | lapatinib 0.005 | pictilisib 0.074 | [4] -0.013 | crizotinib 0.054 | [5] -0.012 | [6] -0.06 | duvelisib 0.027 | gandotinib -0.031 | tozasertib 0.037 | [7] -0.068 | doramapimod -0.008 | ispinesib -0.052

MRPL24 (UniProt Q96A35)
inactive: [1] -0.016 | filanesib 0.292 | zotarolimus 0.102 | idasanutlin -0.077 | alisertib -0.028 | [2] 0.033 | gefitinib -0.159 | [3] -0.161 | lapatinib 0.144 | pictilisib -0.156 | [4] 0.074 | crizotinib 0.011 | [5] -0.055 | [6] 0.327 | duvelisib -0.096 | gandotinib 0.213 | tozasertib -0.028 | [7] 0.132 | doramapimod 0.145 | ispinesib -0.093

MRPL22 (UniProt Q9NWU5)
inactive: [1] -0.077 | filanesib 0.209 | zotarolimus 0.122 | idasanutlin -0.149 | alisertib 0.099 | [2] 0.051 | gefitinib 0.007 | [3] -0.103 | lapatinib 0.194 | pictilisib -0.113 | [4] 0.009 | crizotinib 0.091 | [5] -0.041 | [6] 0.211 | duvelisib -0.102 | gandotinib 0.065 | tozasertib 0.003 | [7] 0.11 | doramapimod 0.169 | ispinesib -0.167

MRPL35 (UniProt Q9NZE8)
inactive: [1] -0.09 | filanesib 0.234 | zotarolimus 0.082 | idasanutlin 0.035 | alisertib -0.217 | [2] -0.084 | gefitinib -0.076 | [3] -0.019 | lapatinib 0.07 | pictilisib -0.265 | [4] -0.013 | crizotinib -0.013 | [5] -0.102 | [6] 0.274 | duvelisib -0.132 | gandotinib 0.315 | tozasertib 0.111 | [7] 0.093 | doramapimod 0.029 | ispinesib -0.126

MPV17L2 (UniProt Q567V2)
inactive: [1] 0.054 | filanesib -0.004 | zotarolimus -0.067 | idasanutlin -0.088 | alisertib 0.02 | [2] 0.051 | gefitinib -0.005 | [3] -0.028 | lapatinib -0.027 | pictilisib 0.142 | [4] -0.014 | crizotinib 0.174 | [5] 0.031 | [6] -0.126 | duvelisib 0.082 | gandotinib -0.023 | tozasertib -0.038 | [7] -0.048 | doramapimod -0.044 | ispinesib 0.147

Pulled one by one from above (2):
MLYCD (UniProt O95822)
inactive: [1] -0.033 | filanesib -0.076 | zotarolimus -0.008 | idasanutlin -0.095 | alisertib -0.079 | [2] -0.107 | gefitinib 0.073 | [3] 0.069 | lapatinib 0.005 | pictilisib 0.074 | [4] -0.013 | crizotinib 0.054 | [5] -0.012 | [6] -0.06 | duvelisib 0.027 | gandotinib -0.031 | tozasertib 0.037 | [7] -0.068 | doramapimod -0.008 | ispinesib -0.052

MRPL12 (UniProt P52815)
inactive: [1] -0.109 | filanesib 0.014 | zotarolimus 0.065 | idasanutlin -0.001 | alisertib -0.055 | [2] -0.19 | gefitinib 0.012 | [3] 0.003 | lapatinib 0 | pictilisib 0.127 | [4] 0.005 | crizotinib 0.243 | [5] 0.162 | [6] -0.098 | duvelisib 0.05 | gandotinib 0.119 | tozasertib 0.088 | [7] -0.037 | doramapimod 0.087 | ispinesib 0.091

Following part:

MRPL37 (UniProt Q9BZE1)
inactive: [1] -0.123 | filanesib -0.057 | zotarolimus 0.056 | idasanutlin -0.117 | alisertib -0.028 | [2] 0.001 | gefitinib -0.052 | [3] -0.009 | lapatinib 0.083 | pictilisib 0.036 | [4] 0.071 | crizotinib -0.017 | [5] 0.012 | [6] 0.181 | duvelisib 0.016 | gandotinib 0.017 | tozasertib -0.047 | [7] 0.102 | doramapimod 0.126 | ispinesib -0.097

MRPL21 (UniProt Q7Z2W9)
inactive: [1] -0.069 | filanesib 0.123 | zotarolimus 0.102 | idasanutlin -0.083 | alisertib -0.11 | [2] -0.001 | gefitinib -0.07 | [3] -0.054 | lapatinib 0.167 | pictilisib -0.027 | [4] 0.034 | crizotinib 0.005 | [5] -0.128 | [6] 0.192 | duvelisib -0.133 | gandotinib -0.031 | tozasertib 0.02 | [7] 0.155 | doramapimod 0.11 | ispinesib -0.12

MRPL43 isoform 4 (UniProt Q8N983)
inactive: [1] -0.057 | filanesib 0.09 | zotarolimus 0.092 | idasanutlin -0.01 | alisertib -0.174 | [2] -0.086 | gefitinib -0.002 | [3] -0.027 | lapatinib 0.165 | pictilisib -0.13 | [4] 0.153 | crizotinib 0.069 | [5] 0.025 | [6] 0.196 | duvelisib -0.138 | gandotinib -0.014 | tozasertib 0.037 | [7] 0.167 | doramapimod 0.132 | ispinesib -0.102

MRPL3 (UniProt P09001)
inactive: [1] -0.034 | filanesib 0.222 | zotarolimus 0.087 | idasanutlin -0.152 | alisertib 0.012 | [2] -0.02 | gefitinib -0.066 | [3] -0.02 | lapatinib 0.139 | pictilisib -0.14 | [4] 0.026 | crizotinib 0.045 | [5] -0.006 | [6] 0.243 | duvelisib -0.039 | gandotinib 0.089 | tozasertib 0.015 | [7] 0.211 | doramapimod 0.089 | ispinesib -0.096

MRPL4 (UniProt Q9BYD3)
inactive: [1] -0.004 | filanesib 0.013 | zotarolimus 0.01 | idasanutlin 0.012 | alisertib 0.017 | [2] -0.089 | gefitinib 0.014 | [3] -0.002 | lapatinib 0.161 | pictilisib 0.017 | [4] -0.033 | crizotinib 0.047 | [5] -0.087 | [6] 0.165 | duvelisib -0.084 | gandotinib 0.181 | tozasertib 0.048 | [7] 0.041 | doramapimod 0.041 | ispinesib -0.141

MRPL15 (UniProt Q9P015)
inactive: [1] 0.016 | filanesib 0.222 | zotarolimus 0.072 | idasanutlin -0.051 | alisertib -0.017 | [2] -0.036 | gefitinib -0.059 | [3] -0.056 | lapatinib 0.102 | pictilisib -0.148 | [4] 0.02 | crizotinib -0.025 | [5] -0.063 | [6] 0.316 | duvelisib -0.099 | gandotinib 0.071 | tozasertib 0.05 | [7] 0.081 | doramapimod 0.083 | ispinesib -0.168

MRPL19 (UniProt P49406)
inactive: [1] -0.044 | filanesib 0.17 | zotarolimus 0.163 | idasanutlin -0.096 | alisertib -0.034 | [2] -0.067 | gefitinib -0.034 | [3] -0.137 | lapatinib 0.112 | pictilisib -0.011 | [4] 0.05 | crizotinib 0.029 | [5] -0.05 | [6] 0.192 | duvelisib -0.096 | gandotinib 0.064 | tozasertib 0.036 | [7] 0.101 | doramapimod 0.087 | ispinesib -0.111

MPP6 (UniProt Q9NZW5)
inactive: [1] 0.035 | filanesib -0.019 | zotarolimus -0.002 | idasanutlin 0.018 | alisertib -0.024 | [2] -0.043 | gefitinib 0.047 | [3] 0.026 | lapatinib 0.05 | pictilisib 0.088 | [4] 0.077 | crizotinib -0.02 | [5] 0.055 | [6] -0.121 | duvelisib -0.005 | gandotinib 0.007 | tozasertib -0.094 | [7] 0.017 | doramapimod 0.009 | ispinesib -0.028
